Values of other authors in patent US8247435B2, “Formulations for treating human and animal diseases” (priority 2009, dated 2012).
At least one structure is not confirmed: it was looked up by name or label, or the drawing left a doubt.

Tested on: angiogenesis-related genes

**Q.** For COc1cc(/C=C/C(O)=C/C(=O)/C=C/c2ccc(O)cc2)ccc1O [demethoxycurcumin], which “number of angiogenesis-related genes down-regulated over 5-fold” value is on record?
**A.** Its value is 9.
